Key:
Assay type in all cases: cell-based, human
[1] = tested on: HCT116 (colon) carcinoma cell line; assay: MTT anti-proliferative assay, HCT116; details: IC50 in normal cell (RPE1)/IC50 in cancer cell (HCT116)
[2] = tested on: MCF7 (breast) carcinoma cell line; assay: MTT anti-proliferative assay, MCF7; details: IC50 in normal cell (RPE1)/IC50 in cancer cell (MCF7)
[3] = tested on: A431 (squamous skin) carcinoma cell line; assay: MTT anti-proliferative assay, A431; details: IC50 in normal cell (RPE1)/IC50 in cancer cell (A431)

O=C1/C(=C/c2ccccc2)CN(C(=O)Nc2ccccc2)C/C1=C\c1ccccc1 [Compound 24, 3,5-Di[(E)-benzylidene]-4-oxo-N-phenylpiperidine-1-carboxamide]
therapeutic index, HCT116 [1]: 15.40 | therapeutic index, MCF7 [2]: 9.09 | therapeutic index, A431 [3]: 6.68

O=C1/C(=C/c2ccccc2)CN(C(=O)Nc2ccc(Cl)cc2)C/C1=C\c1ccccc1 [Compound 25, 3,5-Di[(E)-benzylidene]-N-(4-chlorophenyl)-4-oxopiperidine-1-carboxamide]
therapeutic index, HCT116 [1]: 21.43 | therapeutic index, MCF7 [2]: 10.56 | therapeutic index, A431 [3]: 8.79

COc1ccc(NC(=O)N2C/C(=C\c3ccccc3)C(=O)/C(=C/c3ccccc3)C2)cc1 [Compound 26, 3,5-Di[(E)-benzylidene]-N-(4-methoxyphenyl)-4-oxopiperidine-1-carboxamide]
therapeutic index, HCT116 [1]: 12.39 | therapeutic index, MCF7 [2]: 7.15 | therapeutic index, A431 [3]: 6.26

O=C1/C(=C/c2ccccc2)CN(C(=O)NCc2ccccc2)C/C1=C\c1ccccc1 [Compound 28, N-Benzyl-3,5-di[(E)-benzylidene]-4-oxopiperidine-1-carboxamide]
therapeutic index, HCT116 [1]: 9.13 | therapeutic index, MCF7 [2]: 4.64 | therapeutic index, A431 [3]: 4.64

O=C1/C(=C/c2ccc(Cl)cc2)CN(C(=O)Nc2ccccc2)C/C1=C\c1ccc(Cl)cc1 [Compound 29, 3,5-Bis[(E)-4-chlorobenzylidene]-4-oxo-N-phenylpiperidine-1-carboxamide]
therapeutic index, HCT116 [1]: 13.81 | therapeutic index, MCF7 [2]: 7.27 | therapeutic index, A431 [3]: 7.50

O=C1/C(=C/c2ccc(Cl)cc2)CN(C(=O)Nc2ccc(Cl)cc2)C/C1=C\c1ccc(Cl)cc1 [Compound 30, 3,5-Bis[(E)-4-chlorobenzylidene]-N-(4-chlorophenyl)-4-oxopiperidine-1-carboxamide]
therapeutic index, HCT116 [1]: 8.43 | therapeutic index, MCF7 [2]: 4.33 | therapeutic index, A431 [3]: 7.64

COc1ccc(NC(=O)N2C/C(=C\c3ccc(Cl)cc3)C(=O)/C(=C/c3ccc(Cl)cc3)C2)cc1 [Compound 31, 3,5-Bis[(E)-4-chlorobenzylidene]-N-(4-methoxyphenyl)-4-oxopiperidine-1-carboxamide]
therapeutic index, HCT116 [1]: 7.28 | therapeutic index, MCF7 [2]: 5.21 | therapeutic index, A431 [3]: 6.05

CCNC(=O)N1C/C(=C\c2ccc(Cl)cc2)C(=O)/C(=C/c2ccc(Cl)cc2)C1 [Compound 32, 3,5-Bis[(E)-4-chlorobenzylidene]-N-ethyl-4-oxopiperidine-1-carboxamide]
therapeutic index, HCT116 [1]: 11.61 | therapeutic index, MCF7 [2]: 5.14 | therapeutic index, A431 [3]: 9.21

O=C1/C(=C/c2ccc(Cl)cc2)CN(C(=O)NCc2ccccc2)C/C1=C\c1ccc(Cl)cc1 [Compound 33, N-Benzyl-3,5-bis[(E)-4-chlorobenzylidene]-4-oxopiperidine-1-carboxamide]
therapeutic index, HCT116 [1]: 10.10 | therapeutic index, MCF7 [2]: 5.33 | therapeutic index, A431 [3]: 7.87

O=C1/C(=C/c2ccc(F)cc2)CN(C(=O)Nc2ccccc2)C/C1=C\c1ccc(F)cc1 [Compound 34, 3,5-Bis[(E)-4-fluorobenzylidene]-4-oxo-N-phenylpiperidine-1-carboxamide]
therapeutic index, HCT116 [1]: 31.25 | therapeutic index, MCF7 [2]: 7.48 | therapeutic index, A431 [3]: 13.78

O=C1/C(=C/c2ccc(F)cc2)CN(C(=O)Nc2ccc(Cl)cc2)C/C1=C\c1ccc(F)cc1 [Compound 35, N-(4-Chlorophenyl)-3,5-bis[(E)-4-fluorobenzylidene]-4-oxopiperidine-1-carboxamide]
therapeutic index, HCT116 [1]: 14.75 | therapeutic index, MCF7 [2]: 6.07 | therapeutic index, A431 [3]: 6.88

COc1ccc(NC(=O)N2C/C(=C\c3ccc(F)cc3)C(=O)/C(=C/c3ccc(F)cc3)C2)cc1 [Compound 36, 3,5-Bis[(E)-4-fluorobenzylidene]-N-(4-methoxyphenyl)-4-oxopiperidine-1-carboxamide]
therapeutic index, HCT116 [1]: 15.26 | therapeutic index, MCF7 [2]: 5.53 | therapeutic index, A431 [3]: 7.22

CCNC(=O)N1C/C(=C\c2ccc(F)cc2)C(=O)/C(=C/c2ccc(F)cc2)C1 [Compound 37, N-Ethyl-3,5-bis[(E)-4-fluorobenzylidene]-4-oxopiperidine-1-carboxamide]
therapeutic index, HCT116 [1]: 17.16 | therapeutic index, MCF7 [2]: 4.22 | therapeutic index, A431 [3]: 8.29

O=C1/C(=C/c2ccc(F)cc2)CN(C(=O)NCc2ccccc2)C/C1=C\c1ccc(F)cc1 [Compound 38, N-Benzyl-3,5-bis[(E)-4-fluorobenzylidene]-4-oxopiperidine-1-carboxamide]
therapeutic index, HCT116 [1]: 19.41 | therapeutic index, MCF7 [2]: 5.03 | therapeutic index, A431 [3]: 8.17

Cc1ccc(/C=C2\CN(C(=O)Nc3ccccc3)C/C(=C\c3ccc(C)cc3)C2=O)cc1 [Compound 39, 3,5-Bis[(E)-4-methylbenzylidene]-4-oxo-N-phenylpiperidine-1-carboxamide]
therapeutic index, HCT116 [1]: < 34.72 | therapeutic index, MCF7 [2]: < 12.63 | therapeutic index, A431 [3]: < 19.46

COc1ccc(NC(=O)N2C/C(=C\c3ccc(C)cc3)C(=O)/C(=C/c3ccc(C)cc3)C2)cc1 [Compound 40, N-(4-Methoxyphenyl)-3,5-bis[(E)-4-methylbenzylidene]-4-oxopiperidine-1-carboxamide]
therapeutic index, HCT116 [1]: < 18.32 | therapeutic index, MCF7 [2]: < 9.80 | therapeutic index, A431 [3]: < 10.20

CCNC(=O)N1C/C(=C\c2ccc(C)cc2)C(=O)/C(=C/c2ccc(C)cc2)C1 [Compound 41, N-Ethyl-3,5-bis[(E)-4-methylbenzylidene]-4-oxopiperidine-1-carboxamide]
therapeutic index, HCT116 [1]: 8.37 | therapeutic index, MCF7 [2]: 4.13 | therapeutic index, A431 [3]: 7.16

Cc1ccc(/C=C2\CN(C(=O)NCc3ccccc3)C/C(=C\c3ccc(C)cc3)C2=O)cc1 [Compound 42, N-Benzyl-3,5-bis[(E)-4-methylbenzylidene]-4-oxopiperidine-1-carboxamide]
therapeutic index, HCT116 [1]: 2.04 | therapeutic index, MCF7 [2]: 9.58 | therapeutic index, A431 [3]: 5.37

COc1ccc(/C=C2\CN(C(=O)Nc3ccccc3)C/C(=C\c3ccc(OC)cc3)C2=O)cc1 [Compound 43, 3,5-Bis[(E)-4-methoxybenzylidene]-4-oxo-N-phenylpiperidine-1-carboxamide]
therapeutic index, HCT116 [1]: < 40.65 | therapeutic index, MCF7 [2]: < 12.63 | therapeutic index, A431 [3]: < 18.38

COc1ccc(/C=C2\CN(C(=O)Nc3ccc(Cl)cc3)C/C(=C\c3ccc(OC)cc3)C2=O)cc1 [Compound 44, N-(4-Chlorophenyl)-3,5-bis[(E)-4-methoxybenzylidene]-4-oxopiperidine-1-carboxamide]
therapeutic index, HCT116 [1]: < 45.05 | therapeutic index, MCF7 [2]: < 11.99 | therapeutic index, A431 [3]: < 17.54

COc1ccc(/C=C2\CN(C(=O)Nc3ccc(OC)cc3)C/C(=C\c3ccc(OC)cc3)C2=O)cc1 [Compound 45, 3,5-Bis[(E)-4-methoxybenzylidene]-N-(4-methoxyphenyl)-4-oxopiperidine-1-carboxamide]
therapeutic index, HCT116 [1]: < 36.23 | therapeutic index, MCF7 [2]: < 8.55 | therapeutic index, A431 [3]: < 4.41

CCNC(=O)N1C/C(=C\c2ccc(OC)cc2)C(=O)/C(=C/c2ccc(OC)cc2)C1 [Compound 46, N-Ethyl-3,5-bis[(E)-4-methoxybenzylidene]-4-oxopiperidine-1-carboxamide]
therapeutic index, HCT116 [1]: 31.81 | therapeutic index, MCF7 [2]: 8.33 | therapeutic index, A431 [3]: 5.40

COc1ccc(/C=C2\CN(C(=O)NCc3ccccc3)C/C(=C\c3ccc(OC)cc3)C2=O)cc1 [Compound 47, N-Benzyl-3,5-bis[(E)-4-methoxybenzylidene]-4-oxopiperidine-1-carboxamide]
therapeutic index, HCT116 [1]: < 38.76 | therapeutic index, MCF7 [2]: < 10.22 | therapeutic index, A431 [3]: < 6.27

COc1ccc(NC(=O)N2C/C(=C\c3cccs3)C(=O)/C(=C/c3cccs3)C2)cc1 [Compound 49, (3E,5E)-N-(4-Methoxyphenyl)-4-oxo-3,5-bis(thiophen-2-ylmethylene)piperidine-1-carboxamide]
therapeutic index, HCT116 [1]: < 1.22 | therapeutic index, MCF7 [2]: < 2.03

CCNC(=O)N1C/C(=C\c2cccs2)C(=O)/C(=C/c2cccs2)C1 [Compound 50, (3E,5E)-N-Ethyl-4-oxo-3,5-bis(thiophen-2-ylmethylene)piperidine-1-carboxamide]
therapeutic index, HCT116 [1]: 2.36 | therapeutic index, MCF7 [2]: 2.19 | therapeutic index, A431 [3]: 1.17

Reference: PMC9073595, “Synthesis, human topoisomerase IIα inhibitory properties and molecular modeling studies of anti-proliferative curcumin mimics” (RSC Advances, 2019)
